Assay results: article PMC10984625
Results are given in words; binding and its absence hold for the method and conditions named. Binding seen in cells or lysates may run through a third protein. These calls come from enrichment with a bait or labelling near it, and not all partners need be listed. Sequences can lack the tags named with a protein.

Sequences of proteins named here, by UniProt entry; tags and fusion partners are left off.
UniProt Q6PD03: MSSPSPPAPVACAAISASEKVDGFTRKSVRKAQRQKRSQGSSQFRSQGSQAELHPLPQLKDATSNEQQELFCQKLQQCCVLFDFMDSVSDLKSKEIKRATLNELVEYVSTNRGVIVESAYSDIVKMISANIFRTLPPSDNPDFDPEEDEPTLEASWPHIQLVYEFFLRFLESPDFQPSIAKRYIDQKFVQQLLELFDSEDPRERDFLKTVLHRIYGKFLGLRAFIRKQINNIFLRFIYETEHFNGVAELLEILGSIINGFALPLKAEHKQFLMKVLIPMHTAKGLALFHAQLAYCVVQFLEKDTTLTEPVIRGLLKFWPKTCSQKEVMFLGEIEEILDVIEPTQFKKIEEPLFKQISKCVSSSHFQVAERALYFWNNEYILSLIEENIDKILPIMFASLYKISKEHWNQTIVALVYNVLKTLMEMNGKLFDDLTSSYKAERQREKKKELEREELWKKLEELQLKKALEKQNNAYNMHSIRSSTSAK
UniProt Q61151: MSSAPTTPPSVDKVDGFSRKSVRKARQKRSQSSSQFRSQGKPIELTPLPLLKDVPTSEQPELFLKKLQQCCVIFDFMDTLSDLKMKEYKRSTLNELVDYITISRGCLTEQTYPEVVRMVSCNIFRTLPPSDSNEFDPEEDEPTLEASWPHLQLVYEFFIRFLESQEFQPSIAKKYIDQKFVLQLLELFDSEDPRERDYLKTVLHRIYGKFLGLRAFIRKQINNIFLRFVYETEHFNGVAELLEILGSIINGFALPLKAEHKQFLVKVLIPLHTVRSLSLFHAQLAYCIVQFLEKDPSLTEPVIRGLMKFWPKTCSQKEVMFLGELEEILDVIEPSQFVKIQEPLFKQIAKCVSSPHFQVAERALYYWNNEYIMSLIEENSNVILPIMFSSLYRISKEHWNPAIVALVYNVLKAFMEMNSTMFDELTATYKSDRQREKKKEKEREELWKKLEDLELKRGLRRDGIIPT

T1: reticulon 3 (RTN3) (mouse (endogenous in hippocampus of 3xTg-AD mice)) (UniProt Q9ES97)
T1 sequence: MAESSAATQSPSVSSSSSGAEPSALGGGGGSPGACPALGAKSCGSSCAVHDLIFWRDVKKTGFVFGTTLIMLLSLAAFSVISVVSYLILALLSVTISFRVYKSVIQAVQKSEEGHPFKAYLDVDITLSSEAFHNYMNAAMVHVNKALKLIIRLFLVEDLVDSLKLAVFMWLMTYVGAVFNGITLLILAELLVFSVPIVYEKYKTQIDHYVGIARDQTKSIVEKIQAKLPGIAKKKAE

B1: PPP2R2C (protein, UniProt Q8BG02 1-447)
chain: MGEDTDTRKINHSFLRDHSYVTEADVISTVEFNHTGELLATGDKGGRVVIFQREPESKNAPHSQGEYDVYSTFQSHEPEFDYLKSLEIEEKINKIKWLPQQNAAHSLLSTNDKTIKLWKITERDKRPEGYNLKDEEGKLKDLSTVTSLQVPVLKPMDLMVEVSPRRTFANGHTYHINSISVNSDCETYMSADDLRINLWHLAITDRSFNIVDIKPANMEDLTEVITASEFHPHHCNLFVYSSSKGSLRLCDMRAAALCDKHSKLFEEPEDPSNRSFFSEIISSVSDVKFSHSGRYMLTRDYLTVKVWDLNMEARPIETYQVHDYLRSKLCSLYESDCIFDKFECAWNGSDSVIMTGAYNNFFRMFDRNTKRDVTLEASRESSKPRAVLKPRRVCVGGKRRRDDISVDSLDFTKKILHTAWHPAENIIAIAATNNLYIFQDKVNSDMH

The molecules below were run against T1, reticulon 3 (RTN3) (mouse (endogenous in hippocampus of 3xTg-AD mice)) (assay: affinity purification with mass spectrometry; homogenates of the stratum lucidum of the CA3 region of isolated and group-housed AD mice immunoprecipitated with an antibody against RTN3; three darker Coomassie-stained bands of isolated AD mice cut out for mass spectrometry; proteins with fold change >1.5 against group-housed AD mice).

| Molecule | binding |
| --- | --- |
| PPP2R5A (from UniProt Q6PD03 1-486) | binds |
| PPP2R5E (from UniProt Q61151 1-467) | binds |
| B1 | binds |
